The nature of this experiment: qHTS Assay for Lipid Storage Modulators in Drosophila S3 Cells.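 For cell number change: cells counted by Cell Tracker Red CMTPX staining in the red channel.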 To be noted: BODIPY lipid droplet fluorescence, 18-24 h; for cell number change: measured here: cell count max response, cells fed with added oleic acid. The method in brief: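 Drosophila S3 cells loaded with oleic acid (400 uM, as added) and compounds at several concentrations; lipid droplets imaged by 488-nm laser-scanning cytometry, 500–530 nm intensity and object ratio to cell channel. Percent activity normalized to 20 uM Triacsin C.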
For orientation: qHTS replaces the single test concentration by a dilution series.

Where [1] appears, read: measured here: lipid fluorescence (Fed channel) AC50, cells fed with added oleic acid.
Setting [2] is: measured here: cell number channel AC50, cells fed with added oleic acid.

The other results are listed elsewhere or left out. The main result of the screen is listed elsewhere. These columns were measured beside it and carry no call. Most of these compounds were active or inconclusive in the main read-out, so they are no random draw. Words in brackets tell the shape of the fitted curve; partial curves, single points and poor fits give uncertain potencies.

In the case of `Cn1c(CS/C(N)=N/N=C/c2ccccc2)c(Br)c(=O)n1-c1ccccc1`, the AC50 (usually the midpoint of the concentration-response curve, whichever way the signal moves) under setting [1] is 2.31 µM [rising, full curve].
In the case of `CCOc1ccc(C2C(C(=O)c3ccco3)=C(O)C(=O)N2CCN(C)C)cc1` (stereo not drawn), the cell number change is -19.5%.
Take `CC1CC(C)CN(C(=O)COC(=O)Cc2ccc(Br)cc2)C1` (stereo not drawn): under setting [1], the AC50 is 6.51 µM [falling, single point].
As for `O=C(C(Cc1ccccc1)n1cccc1)N1CCCCC1` (stereo not drawn), the cell number change was -15.9%. Besides, the AC50 under setting [2] is 0.82 µM [falling, partial curve, poor fit].
Regarding `CCOC(=O)c1c(C)[nH]c(C)c1S(=O)(=O)NC1CCN(C(=O)OCC)CC1`, the AC50 under setting [1] is 4.11 µM [falling, partial curve].
For `CCOc1ccc(/C(O)=C2\C(=O)C(=O)N(CCOCCO)C2c2ccccc2OC)cc1` (stereo not drawn), the cell number change is -8.77%.
For the compound `CCc1ccc(/C=N/NC(=O)c2cc(C3CC3)nc3ccccc23)s1`, the cell number change was -15.4%. In addition, the AC50 under setting [1] is 23.1 µM [rising, partial curve].
In the case of `C[C@H](NC(=O)[C@@H]1Cc2ccccc2CN1)C(=O)NC1CCCCC1`, the cell number change stood at 6.11%. Further, the AC50 under setting [1] was 20.6 µM [rising, single point].
As to `CCc1ccc(N(C(=O)c2csnn2)C(C(=O)NC(C)(C)CC)c2ccccn2)cc1` (stereo not drawn), the AC50 under setting [1] was 1.64 µM [falling, single point].
Turning to `Cc1ccccc1OCC(=O)Nc1nc(C)c(C(=O)N(C)C)s1`, the AC50 under setting [1] was 29.1 µM [rising, single point].
As for `C=CCNc1c2c(nc3ncnn13)CC(C)CC2` (stereo not drawn), the cell number change worked out at 56.6%. Further, under setting [2], the AC50 was 2.31 µM [rising, full curve]. Also, the AC50 under setting [1] was 0.731 µM [rising, single point].
As to `Cc1ccc(C)c(-n2c(-c3cccnc3)n[nH]c2=S)c1`, the cell number change was -50%. The concentration at half-maximal activity (AC50) under setting [2] was 29.1 µM [falling, single point].
For the compound `COc1ccccc1CCNC(=O)C(=O)NCC1OCCN1S(=O)(=O)c1cc(F)ccc1F` (stereo not drawn), the cell number change turned out to be 7.49%. Besides, the AC50 under setting [2] is 0.517 µM [rising, single point].
With `CCn1cc(C(=O)N2CCCC(N3CCN(c4cccc(C(F)(F)F)c4)CC3)C2)cn1` (stereo not drawn), the cell number change was -24.8%. For the same compound, under setting [1], the AC50 is 0.58 µM [falling, single point].
`CCOC(=O)Cc1nnc(NC(=O)CSc2ccccc2)s1`: the cell number change is 16.5%.
`OC(COc1c(Br)cc(Br)cc1Br)CN1CCOCC1` (stereo not drawn): the cell number change is -16.3%. The AC50 under setting [1] was 0.082 µM [rising, full curve, poor fit].
Regarding `C/C(=N\NC(=O)CCCNc1ccc(C)cc1)c1ccccn1`, the cell number change turned out to be 16.7%. Moreover, the AC50 under setting [1] is 4.61 µM [rising, full curve].
For the compound `COC(=O)C1=C(C)N(CCc2ccccc2)C(=O)C1(NS(=O)(=O)c1ccc(NC(C)=O)cc1)C(F)(F)F` (stereo not drawn), the cell number change was 34%. Also, the AC50 under setting [2] is 0.0517 µM [rising, full curve, poor fit]. Besides, the AC50 under setting [1] is 0.731 µM [rising, partial curve, poor fit].
As for `COc1c(Cl)cc(-c2noc(C)c2C(=O)NCc2ccccc2)cc1Cl`, under setting [1], the concentration at half-maximal activity (AC50) is 23.1 µM [rising, single point].
As for `CCOc1cc(CNCCc2ccc(S(N)(=O)=O)cc2)ccc1OCc1ccccc1`, the cell number change is -28%. Further, the half-maximal activity concentration (AC50) under setting [1] is 29.1 µM [falling, single point].
As to `COc1ccc(OS(=O)(=O)Cc2ccccc2)cc1`, the cell number change was 15.1%. Moreover, the concentration at half-maximal activity (AC50) under setting [1] was 6.51 µM [falling, full curve, poor fit].
With `Cc1ccc(NC(=O)COC(=O)C2CCC(=O)N2)c(S(=O)(=O)N2CCOCC2)c1` (stereo not drawn), the AC50 under setting [1] is 23.1 µM [falling, partial curve].
Take `O=C(NCc1ccc(F)cc1)c1ccc(NC(=O)C2CCCO2)cc1` (stereo not drawn): the cell number change came to 12.9%. Besides, the AC50 under setting [1] is 18.4 µM [rising, single point].
On to `Nc1ccc(NC(=O)CCN2CCOCC2)cc1`, for which the cell number change came to 7.14%. Further, the AC50 under setting [1] is 4.11 µM [falling, single point].
For the compound `CC(=O)NC(CC(=O)Nc1ccc(S(=O)(=O)N2CCCCC2)cc1)c1ccccc1` (stereo not drawn), the AC50 under setting [2] is 0.164 µM [rising, full curve, poor fit].
As to `O=C(Cc1ccccn1)c1ccc(F)cc1`, the cell number change amounted to 9.44%.
As to `Nn1c(Cc2cccc3ccccc23)nnc1SCn1nnc2ccccc2c1=O`, the cell number change is 53.1%. In addition, under setting [2], the AC50 was 2.59 µM [rising, single point]. The AC50 under setting [1] was 5.8 µM [rising, partial curve].
Turning to `CCOC(=O)C1CCCN(c2c(NCCN(CC)c3ccccc3)c(=O)c2=O)C1` (stereo not drawn), the cell number change came to 44%. In addition, the AC50 under setting [2] was 11.6 µM [rising, partial curve].
Take `O=C(Cn1nnc(-c2ccc3c(c2)OCO3)n1)Nc1ccccc1C(=O)O`: the cell number change is -16.1%. Further, the AC50 under setting [1] is 20.6 µM [rising, partial curve, poor fit].
Regarding `Cc1cc(C)nc(NN=C(c2ccccc2)c2ccccc2)n1`, the cell number change was determined as 41.8%. Besides, the concentration at half-maximal activity (AC50) under setting [2] is 8.2 µM [rising, partial curve]. For the same compound, under setting [1], the AC50 was 7.31 µM [rising, partial curve].
Regarding `CCN(CCn1cccn1)Cc1cn[nH]c1-c1ccc(OC)cc1F`, the cell number change is -0.363%. Moreover, under setting [1], the AC50 is 6.51 µM [falling, single point].
As to `CCCOc1ccc(S(=O)(=O)n2cc(F)c(=O)[nH]c2=O)cc1`, the cell number change was found to be 170%. Moreover, under setting [2], the AC50 is 9.2 µM [rising, partial curve]. For the same compound, the AC50 under setting [1] is 8.2 µM [rising, partial curve].
In the case of `Cn1c(=O)n(C)c2cc([N+](=O)[O-])c(N3CCN(CCO)CC3)cc21`, the cell number change is -9.72%.
In the case of `COc1cc(OC)c2c(C)cc(=O)oc2c1C(CCN1CCOCC1)c1ccc(N(C)C)cc1` (stereo not drawn), the cell number change was 16.2%. Also, the half-maximal activity concentration (AC50) under setting [1] is 0.058 µM [rising, full curve, poor fit].
Consider `O=S(=O)(NCCN1CCOCC1)c1cc(Cl)ccc1Cl`, for which the cell number change is -14%.
Turning to `CCN(CCCNC(=O)c1[nH]c(C)c(C(C)=O)c1C)c1ccccc1`, the AC50 under setting [1] was 6.51 µM [rising, single point].
Consider `Cc1cc(C)nc(N2CCC(C(=O)NNC(=O)c3ccccc3)CC2)n1`, for which the cell number change worked out at 24.6%. In addition, under setting [1], the AC50 was 8.2 µM [rising, partial curve].
Turning to `O=S(=O)(c1ccccc1OC(F)(F)F)N1CCN(c2ccnc3cc(Cl)ccc23)CC1`, the cell number change turned out to be 102%. Moreover, the AC50 under setting [2] is 29.1 µM [rising, single point].
For the compound `COc1ccc(S(=O)(=O)N2CCC(c3cc(-c4cccc5ccccc45)n[nH]3)CC2)cc1`, the cell number change amounted to 26.3%. Also, under setting [1], the AC50 was 29.1 µM [rising, single point].
`O=C(NCC(=O)N1CCN(c2ccccc2)CC1)c1ccc(Cl)cc1`: the cell number change was found to be 21.7%. For the same compound, the AC50 under setting [1] was 7.31 µM [rising, partial curve, poor fit].
Take `CCCCC(CC)CNC(=O)CN(C)S(=O)(=O)c1cccc2nsnc12` (stereo not drawn): the cell number change was -7.24%.
Regarding `Cc1ccc2[nH]c3c(c2c1)CN(C(=O)CN1CC(C)OC(C)C1)CC3` (stereo not drawn), the cell number change worked out at 23.8%. Moreover, the AC50 under setting [1] is 23.1 µM [rising, single point].
With `COc1ccc(NC(=O)C2CCN(S(=O)(=O)c3ccc4c(c3)NC(=O)CO4)CC2)cc1`, the cell number change turned out to be 28.6%. Under setting [2], the AC50 was 5.8 µM [rising, single point]. Also, the AC50 under setting [1] was 18.4 µM [rising, partial curve].
Consider `CCOC(=O)c1sc(NC(=O)c2sc(C)nc2C)nc1C`, for which the cell number change is -19.1%. In addition, the AC50 under setting [1] is 0.58 µM [rising, partial curve, poor fit].
Take `O=C(Nc1ccc(OC(F)F)c(Cl)c1)C(c1ccccc1)c1ccccc1`: the cell number change is -25.2%. Further, the AC50 under setting [1] was 20.6 µM [falling, single point].
As for `COc1cc(/C=C2/C(=O)NN(c3ccccc3)C2=O)cc(Br)c1O`, the cell number change was -4.23%.
Take `Clc1ccc(SCCOCCN2CCOCC2)cc1`: the cell number change was -5.77%. Further, the concentration at half-maximal activity (AC50) under setting [1] was 11.6 µM [rising, partial curve].
For `CSc1ccccc1OCc1cc(C(=O)N(C)CCc2c(C)n[nH]c2C)no1`, the cell number change turned out to be 0.708%.
Turning to `O=S(=O)(N1CCCCC1)N1CCN(S(=O)(=O)N2CCCCC2)CC1`, the cell number change is -11.8%. In addition, the AC50 under setting [2] is 2.59 µM [falling, partial curve]. Moreover, under setting [1], the AC50 was 6.51 µM [falling, single point].
With `Cc1ccc(NC2=CC(=O)CC(C)(C)C2)cc1F`, the cell number change is -26.4%.
On to `C/C(=N\OCC(=O)Nc1nc2ccccc2s1)c1ccccc1`, for which, under setting [1], the concentration at half-maximal activity (AC50) was 2.91 µM [rising, full curve].
For the compound `COc1ccccc1-c1cn[nH]c1-c1ccc(OCc2ccc(F)cc2)cc1O`, the cell number change was -58.5%. In addition, the AC50 under setting [2] is 29.1 µM [falling, single point].
For `CCN(CC)S(=O)(=O)c1cccc(NC(=O)CCNC(=O)c2ccc([N+](=O)[O-])cc2)c1`, the cell number change was -13.1%. The AC50 under setting [1] was 18.4 µM [falling, single point].
Consider `C#Cc1ccc(C(=O)Nc2ccc(N3CCC(C)CC3)c(C(N)=O)c2)cc1`, for which the cell number change worked out at 5.89%.
In the case of `CCN(CC)C(=O)CSc1nnc(-n2nc(C)cc2C)c2ccccc12`, the cell number change stood at 91.7%. In addition, the concentration at half-maximal activity (AC50) under setting [2] is 11.6 µM [rising, partial curve]. Moreover, under setting [1], the half-maximal activity concentration (AC50) was 2.06 µM [rising, full curve].
As for `COc1ccc(-n2c(COc3cccc4ccccc34)nnc2SCC(=O)NCc2ccco2)cc1`, the cell number change was -20.3%. The AC50 under setting [2] was 1.84 µM [rising, partial curve]. For the same compound, the AC50 under setting [1] is 4.11 µM [rising, partial curve].
In the case of `O=C(CSc1nnc(-c2ccncc2)n1-c1ccc(Cl)cc1)N1CCOCC1`, the cell number change is 17.3%. For the same compound, the AC50 under setting [1] is 13 µM [rising, partial curve].
Turning to `COC(=O)Nc1nnc(/C=C/c2ccc(OC)cc2)s1`, the cell number change was -2.71%.
`COC(=O)Cc1[nH]nc2c1C(c1c[nH]c3ccccc13)C(C#N)=C(N)O2` (stereo not drawn): the cell number change is -26.6%. The AC50 under setting [1] was 23.1 µM [falling, single point].
As for `COc1cccc(NC(=O)C(=O)NCc2ccncc2)c1`, the cell number change is -40.6%. For the same compound, the AC50 under setting [2] was 2.06 µM [falling, single point]. Further, under setting [1], the AC50 is 29.1 µM [falling, single point].
In the case of `Oc1c(Cl)cc(Cl)cc1/C=N/c1ncn[nH]1`, the cell number change was -16.7%. The AC50 under setting [1] is 29.1 µM [rising, single point].
With `CC(=O)c1ccc(NC(=O)CN(c2c(C)cccc2C)S(C)(=O)=O)cc1`, the cell number change is -20.9%.
With `CC(C)n1c(N2CCN(C(=O)Nc3ccccc3)CC2)nc2ccccc21`, the cell number change is -8.21%. For the same compound, under setting [1], the AC50 is 29.1 µM [falling, single point].

(Values after PubChem BioAssay AID2685 (National Center for Advancing Translational Sciences (NCATS), 2010).)
